Test results from US20260209267 (published 2026).

Assay: general procedure: Fmoc solid-phase peptide synthesis; 2-chlorotrityl chloride resin (100-200 mesh, 1% DVB), Fmoc-Asp(O-Trt(2-Cl)-resin) amides; COMU/DIPEA (cyclisation)
Settings: for step yield: recovery rate

(3S,6S,9S,12S,16S,19S,25S,28S,31S,36aS)-25,28-benzyl-19-((R)-1-hydroxyethyl)-3,31-diisobutyl-9-isopropyl-2,6,8,15,16,21,24,27,30-nonamethyl-12-(piperidine-1-carbonyl)tetracosahydropyrrolo[2,1-1][1,4,7,10,13,16,19,22,25,28,31]undecaazacyclotetratriacontin-1
purity (crude or final not stated) (whole synthesis, HPLC peak area percentage, scale of the general procedure usually 100 mg resin per reaction vessel, run 1): 85.7%

(3S,6S,9S,12S,18S,22S,25S,28S,31S,34S,37S)-6-(cyclohexylmethyl)-31-(cyclopentylmethyl)-34-[(3,4-difluorophenyl)methyl]-28-[(4-fluorophenyl)methyl]-3-isobutyl-25-isopropyl-9,10,18,19,26,29,35-heptamethyl-22-(pyrrolidin-1-carbonyl)-1,4,7,10,16,19,23,26,29,32,3
final HPLC purity (purification step, HPLC peak area percentage): 88% purity | final HPLC purity (purification step, peak area percentage, run 1): 90% | final HPLC purity (purification step, peak area percentage, run 2): 93% purity | step yield (purification step, run 1): 82% | step yield (purification step, run 2): recovery rate 73% | final HPLC purity (whole synthesis, 220 nm, scale of the general procedure usually 100 mg resin per reaction vessel): 84% purity [peak area percentage] | isolated yield (whole synthesis, scale of the general procedure usually 100 mg resin per reaction vessel): 68%
